This is one part of the list.
Assays:
Test in all cases: glycan array binding signal (z-score within array); higher = stronger binding
Settings in all cases: glycan notation: IUPAC condensed, linker removed
[1] = target: Gal(b1-3)[Fuc(a1-4)]GlcNAc
Method in brief: (§1)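 Glycan array data came from 3228 arrays in the Consortium for Functional Glycomics database, and only arrays with an available protein sequence were kept. Glycan names were put into IUPAC-condensed notation, and columns mapping to the same glycan were averaged. The binding signal is a within-array Z-score, averaged across arrays of one protein sequence run at different concentrations or buffers and across linkers. A negative Z-score can be read as non-binding.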

[2] = target: Gal(b1-3)[Fuc(a1-4)]GlcNAc(b1-2)Man(a1-3)[Gal(b1-3)[Fuc(a1-4)]GlcNAc(b1-2)Man(a1-6)]Man(b1-4)GlcNAc(b1-4)GlcNAc
Method in brief: as §1

[3] = target: Gal(b1-3)[Fuc(a1-4)]GlcNAc(b1-2)Man(a1-3)[Gal(b1-3)[Fuc(a1-4)]GlcNAc(b1-2)Man(a1-6)]Man(b1-4)GlcNAc(b1-4)[Fuc(a1-6)]GlcNAc
Method in brief: as §1

[4] = target: Gal(b1-3)[Fuc(a1-4)]GlcNAc(b1-3)Gal(b1-3)[Fuc(a1-4)]GlcNAc
Method in brief: as §1

[5] = target: Gal(b1-3)[Fuc(a1-4)]GlcNAc(b1-3)Gal(b1-4)GlcNAc
Method in brief: as §1

[6] = target: Gal(b1-3)[Fuc(a1-4)]GlcNAc(b1-3)Gal(b1-4)[Fuc(a1-3)]GlcNAc
Method in brief: as §1

[7] = target: Gal(b1-3)[GlcNAc(b1-6)]GalNAc
Method in brief: as §1

[8] = target: Gal(b1-3)[Neu5Ac(a2-6)]GalNAc
Method in brief: as §1

[9] = target: Gal(b1-3)[Neu5Ac(a2-6)]GlcNAc(b1-6)Gal(b1-4)Glc
Method in brief: as §1

[10] = target: Gal(b1-3)[Neu5Ac(b2-6)]GalNAc
Method in brief: as §1

[11] = target: Gal(b1-4)GalNAc(a1-3)[Fuc(a1-2)]Gal(b1-4)GlcNAc
Method in brief: as §1

[12] = target: Gal(b1-4)GalNAc(b1-3)[Fuc(a1-2)]Gal(b1-4)GlcNAc
Method in brief: as §1

[13] = target: Gal(b1-4)Glc
Method in brief: as §1

[14] = target: Gal(b1-4)Glc6S
Method in brief: as §1

[15] = target: Gal(b1-4)GlcNAc
Method in brief: as §1

[16] = target: Gal(b1-4)GlcNAc(a1-6)Gal(b1-4)GlcNAc
Method in brief: as §1

[17] = target: Gal(b1-4)GlcNAc(b1-2)Man(a1-3)Man(b1-4)GlcNAc(b1-4)GlcNAc
Method in brief: as §1

[18] = target: Gal(b1-4)GlcNAc(b1-2)Man(a1-3)[Gal(b1-4)GlcNAc(b1-2)Man(a1-6)]Man(b1-4)GlcNAc(b1-4)GlcNAc
Method in brief: as §1

[19] = target: Gal(b1-4)GlcNAc(b1-2)Man(a1-3)[Gal(b1-4)GlcNAc(b1-2)Man(a1-6)]Man(b1-4)GlcNAc(b1-4)[Fuc(a1-6)]GlcNAc
Method in brief: as §1

[20] = target: Gal(b1-4)GlcNAc(b1-2)Man(a1-3)[GlcNAc(b1-2)Man(a1-6)]Man(b1-4)GlcNAc(b1-4)GlcNAc
Method in brief: as §1

[21] = target: Gal(b1-4)GlcNAc(b1-2)Man(a1-3)[Man(a1-6)]Man(b1-4)GlcNAc(b1-4)GlcNAc
Method in brief: as §1

[22] = target: Gal(b1-4)GlcNAc(b1-2)Man(a1-6)Man(b1-4)GlcNAc(b1-4)GlcNAc
Method in brief: as §1

[23] = target: Gal(b1-4)GlcNAc(b1-2)Man(a1-6)[GlcNAc(b1-2)Man(a1-3)]Man(b1-4)GlcNAc(b1-4)GlcNAc
Method in brief: as §1

[24] = target: Gal(b1-4)GlcNAc(b1-2)Man(a1-6)[Man(a1-3)]Man(b1-4)GlcNAc(b1-4)GlcNAc
Method in brief: as §1

[25] = target: Gal(b1-4)GlcNAc(b1-2)[Gal(b1-4)GlcNAc(b1-4)]Man(a1-3)[Gal(b1-4)GlcNAc(b1-2)Man(a1-6)]Man(b1-4)GlcNAc(b1-4)GlcNAc
Method in brief: as §1

[26] = target: Gal(b1-4)GlcNAc(b1-2)[Gal(b1-4)GlcNAc(b1-4)]Man(a1-3)[Gal(b1-4)GlcNAc(b1-2)[Gal(b1-4)GlcNAc(b1-6)]Man(a1-6)]Man(b1-4)GlcNAc(b1-4)GlcNAc
Method in brief: as §1

[27] = target: Gal(b1-4)GlcNAc(b1-3)Gal(b1-3)GlcNAc
Method in brief: as §1

[28] = target: Gal(b1-4)GlcNAc(b1-3)Gal(b1-4)Glc
Method in brief: as §1

[29] = target: Gal(b1-4)GlcNAc(b1-3)Gal(b1-4)GlcNAc
Method in brief: as §1

[30] = target: Gal(b1-4)GlcNAc(b1-3)Gal(b1-4)GlcNAc(b1-3)Gal(b1-4)GlcNAc
Method in brief: as §1

[31] = target: Gal(b1-4)GlcNAc(b1-3)Gal(b1-4)[Fuc(a1-3)]GlcNAc(b1-3)Gal(b1-4)[Fuc(a1-3)]GlcNAc
Method in brief: as §1

[32] = target: Gal(b1-4)GlcNAc(b1-3)GalNAc
Method in brief: as §1

[33] = target: Gal(b1-4)GlcNAc(b1-3)[Gal(b1-4)GlcNAc(b1-6)]Gal(b1-4)GlcNAc
Method in brief: as §1

[34] = target: Gal(b1-4)GlcNAc(b1-3)[Gal(b1-4)GlcNAc(b1-6)]GalNAc
Method in brief: as §1

[35] = target: Gal(b1-4)GlcNAc(b1-3)[GlcNAc(b1-6)]Gal(b1-4)GlcNAc
Method in brief: as §1

[36] = target: Gal(b1-4)GlcNAc(b1-6)Gal(b1-4)GlcNAc
Method in brief: as §1

[37] = target: Gal(b1-4)GlcNAc(b1-6)GalNAc
Method in brief: as §1

B1: AcfC (Vibrio cholerae), Q57410 (protein)
chain: MKSKNRFLLISLLSFSTSVFADVNLYGPGGPHVPLIKVAESFEKSQSKRVNITFGPQATWNDKAKKNADILFGASEHSALAIAEGHSERFSKFNIHPVFMREAIILVKKGNPKNIKGMADLLKPGIGIVVNDGAGVSNTSGTAVWEDSVGRMKNVEKLQAFRSNIHVFAPNSGSARKAFVDGEDIDAWITWVDWAIANPTIGDMVRMEDEYRIYRDFNVVLAKNPSSEAIDFFDYLTKSKDAEAIFQHYGWFK
What does the source list for B1?
glycan array binding signal (z-score) [1]: 0.672; glycan array binding signal (z-score) [2]: 1.93; glycan array binding signal (z-score) [3]: 1.45; glycan array binding signal (z-score) [4]: 0.16; glycan array binding signal (z-score) [5]: -1.5; glycan array binding signal (z-score) [6]: -0.436; glycan array binding signal (z-score) [7]: -0.679; glycan array binding signal (z-score) [8]: 0.043; glycan array binding signal (z-score) [9]: -0.622; glycan array binding signal (z-score) [10]: -0.095; glycan array binding signal (z-score) [11]: 0.656; glycan array binding signal (z-score) [12]: -0.093; glycan array binding signal (z-score) [13]: -0.89; glycan array binding signal (z-score) [14]: 0.19; glycan array binding signal (z-score) [15]: -1.08; glycan array binding signal (z-score) [16]: 0.616; glycan array binding signal (z-score) [17]: -0.402; glycan array binding signal (z-score) [18]: 3; glycan array binding signal (z-score) [19]: 1.29; glycan array binding signal (z-score) [20]: 0.173; glycan array binding signal (z-score) [21]: -0.107; glycan array binding signal (z-score) [22]: 1.19; glycan array binding signal (z-score) [23]: 0.212; glycan array binding signal (z-score) [24]: -0.637; glycan array binding signal (z-score) [25]: 1.71; glycan array binding signal (z-score) [26]: 0.947; glycan array binding signal (z-score) [27]: 0.193; glycan array binding signal (z-score) [28]: 0.082; glycan array binding signal (z-score) [29]: -1.1; glycan array binding signal (z-score) [30]: -0.41; glycan array binding signal (z-score) [31]: 1.46; glycan array binding signal (z-score) [32]: -0.583; glycan array binding signal (z-score) [33]: -0.494; glycan array binding signal (z-score) [34]: 0.236; glycan array binding signal (z-score) [35]: -0.485; glycan array binding signal (z-score) [36]: -1.07; glycan array binding signal (z-score) [37]: 0.912

From the supplement of paper PMC8728848
